Measurements from “University of Dundee, Small-Polar-MMV Screening Library” (2021), ChEMBL document CHEMBL3988442.

Mtb cholesterol medium: 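Phenotypic screen: M. tuberculosis growth, cholesterol and DPPC medium, 4 days; the read-out is not stated. Compounds at 500 µM. Direction is inferred from retests: higher values go with more growth inhibition. About 18,000 compounds were tested under these conditions; 5% (about 900) showed 50% or more at least once.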
Mtb glucose medium: 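Whole-cell growth test on Mycobacterium tuberculosis, read after 3 days in glucose-containing 7H9 medium; the read-out is not stated. Compounds at 500 µM. The record gives no direction; compounds that gave an IC50 in retests scored well above the rest, so higher reads as more growth inhibition. Size under these conditions: about 18,000 compounds, about 1,400 of them at 50% or above in at least one test.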

Values are the deposited “Percent Effect”, in %.
How 0% and 100% were set is not recorded. Most values in the screen are low, and negative values occur.
The compounds are a random part of those screened.

compound: Cc1noc(C)c1CN1C[C@@H](F)C[C@H]1CN
Mtb cholesterol medium: 8.036
Mtb glucose medium: 11

compound: Cc1c[nH]c(C(=O)N2CCCN(C3CCCC3)CC2)n1
Mtb cholesterol medium: 6.608
Mtb glucose medium: 10.86

compound: CCn1ccc(C(=O)NCC2CCCCC(=O)N2)n1 (stereo not drawn)
Mtb cholesterol medium: -18.17
Mtb glucose medium: -4.494

compound: COc1ccc2c(c1)CCCN2CC(=O)NC(N)=O
Mtb cholesterol medium: -15.04
Mtb glucose medium: -6.556

compound: CCc1ccc(CNC(=O)c2ccc(C(N)=O)cc2)s1
Mtb cholesterol medium: 2.626
Mtb glucose medium: 4.271

compound: CCS(=O)(=O)N1CCN(c2ccc(C)nn2)CC1
Mtb cholesterol medium: -3.241
Mtb glucose medium: 0.8437

compound: CCSc1nccc(N)n1
Mtb cholesterol medium: 4.35
Mtb glucose medium: 2.954

compound: CN(C)CCCC(=O)N1CCCC(CO)(CC2CC2)C1 (stereo not drawn)
Mtb cholesterol medium: -20.96
Mtb glucose medium: 7.724

compound: COCCc1nc(CCC(F)(F)F)n(CCO)n1
Mtb cholesterol medium: 1.231
Mtb glucose medium: 1.681

compound: CCN1CCC(CNC(=O)Nc2cc(C)nn2C)C1 (stereo not drawn)
Mtb cholesterol medium: -6.758
Mtb glucose medium: 2.095

compound: Cc1ccc(C(=O)N2CCC(C(C)O)CC2)c(O)c1 (stereo not drawn)
Mtb cholesterol medium: 8.899
Mtb glucose medium: 11.43

compound: CC(C)C(C)NC(=O)CCNS(=O)(=O)c1cccnc1 (stereo not drawn)
Mtb cholesterol medium: 1.224
Mtb glucose medium: 20.84

compound: CNC(=O)c1cccnc1NC1CC=CC1
Mtb cholesterol medium: 1.527
Mtb glucose medium: 3.26

compound: Nc1cn(-c2ccccc2C(F)(F)F)nn1
Mtb cholesterol medium: 18.16
Mtb glucose medium: 14.91

compound: CCOc1ccc(C(C)=O)cc1CN1CCCC1
Mtb cholesterol medium: 43
Mtb glucose medium: 62.74

compound: CN1C(=O)C[C@H](CN)[C@H]1c1ccncc1
Mtb cholesterol medium: -8.655
Mtb glucose medium: -4.221

compound: Cc1ccnc(NCCNC2CCSCC2)c1
Mtb cholesterol medium: 34.48
Mtb glucose medium: 31.34

compound: CC[C@H](N)C(=O)N(CC)C(C)c1ccc(F)cc1 (stereo partly drawn)
Mtb cholesterol medium: 13.25
Mtb glucose medium: 37.74

compound: CC1CCC(N(C)C(=O)Cn2cccn2)CC1 (stereo not drawn)
Mtb cholesterol medium: 19.68
Mtb glucose medium: 19.35

compound: Cc1noc(CN2C[C@H](C(C)C)[C@@H](N)C2)n1
Mtb cholesterol medium: -11.71
Mtb glucose medium: -0.4656

compound: CN1CCC(C)(c2nc(C3CCOC3)no2)CC1 (stereo not drawn)
Mtb cholesterol medium: 7.537
Mtb glucose medium: -6.94

compound: CNc1ncc(Br)s1
Mtb cholesterol medium: -18.75
Mtb glucose medium: -17.28

compound: CC[C@H](CO)Nc1ccnc2cc(Br)cnc12
Mtb cholesterol medium: -9.738
Mtb glucose medium: -6.916

compound: COC(=O)c1cscc1C(=O)OC
Mtb cholesterol medium: 23.5
Mtb glucose medium: 11.55

compound: Cn1cc(CN(C(=O)c2ccc(N)nc2)C2CC2)cn1
Mtb cholesterol medium: -13.34
Mtb glucose medium: -3.426

compound: COc1ccccc1NC(=O)N1CCOC(C)C1 (stereo not drawn)
Mtb cholesterol medium: 5.862
Mtb glucose medium: 11.68

compound: CC(C(=O)N(C)Cc1cc(Br)cs1)n1cncn1 (stereo not drawn)
Mtb cholesterol medium: 15.35
Mtb glucose medium: 36.82

compound: CN1CCOC(C(=O)Nc2cc(Cl)cc3c2OCC3)C1 (stereo not drawn)
Mtb cholesterol medium: 31.45
Mtb glucose medium: 27.6

compound: N#Cc1c[nH]c(C(=O)NCC(=O)N2CCNCC2)c1
Mtb cholesterol medium: 1.231
Mtb glucose medium: 1.241

compound: CN(C)c1ncccc1CNS(=O)(=O)c1ccccc1
Mtb cholesterol medium: 45.73
Mtb glucose medium: 53.21

compound: CC(O)CNC(=O)NCc1ccc2c(c1)OCCO2 (stereo not drawn)
Mtb cholesterol medium: -8.564
Mtb glucose medium: 6.756

The first 2 entries again:

- Cc1noc(C)c1CN1C[C@@H](F)C[C@H]1CN | Mtb cholesterol medium: 8.036%; Mtb glucose medium: 11%
- Cc1c[nH]c(C(=O)N2CCCN(C3CCCC3)CC2)n1 | Mtb cholesterol medium: 6.608%; Mtb glucose medium: 10.86%